The values below come from PMC8121154, “The effects of pH and NaCl concentration on the structure of β‐casein from buffalo milk” (Food Science & Nutrition, 2021).

The target in assay [1] is native β‐casein purified from buffalo milk (buffalo (purified from buffalo milk)) (UniProt Q9TSI0). As to the kind of experiment: dynamic light scattering; purified β‐CN in 10 mM sodium phosphate buffer pH 7.0 with 10 mM NaCl, room temperature; particle size distribution 10 nm; both purified.
For assay [2] the target is unchanged. As to the kind of experiment: dynamic light scattering; purified β‐CN in 10 mM sodium phosphate buffer at its natural pH (series pH 5-7.5), room temperature; particle size distribution about 10 nm; both purified.
The target is the same in assay [3]. Description: dynamic light scattering; purified β‐CN in 10 mM sodium phosphate buffer pH 7.0 with 0.1 to 0.3 M NaCl, room temperature; both purified.

Results are given in words; binding and its absence hold for the method and conditions named.

B1: native β‐casein purified from buffalo milk (natural protein, buffalo (purified from buffalo milk), UniProt Q9TSI0 16-224, looked up)
chain: RELEELNVPGEIVESLSSSEESITHINKKIEKFQSEEQQQMEDELQDKIHPFAQTQSLVYPFPGPIPKSLPQNIPPLTQTPVVVPPFLQPEIMGVSKVKEAMAPKHKEMPFPKYPVEPFTESQSLTLTDVENLHLPLPLLQSWMHQPPQPLPPTVMFPPQSVLSLSQSKVLPVPQKAVPYPQRDMPIQAFLLYQEPVLGPVRGPFPIIV
notes: β‐casein of buffalo milk (water buffalo), native protein purified from milk; single band of approximately 25 kDa on SDS-PAGE; Native milk protein; also called β‐CN; buffalo β‐CN
Consider B1, for which the binding entry was “no binding (condition: in 10 mM NaCl, pH 7.0)” in assay [1]; “no binding (condition: at its natural pH)” in assay [2]; “no binding (condition: with 0.1 to 0.3 M NaCl, pH 7.0)” in assay [3].
